In patent US20250176599A1, “FLAVOR COMPOSITION AND FOOD AND BEVERAGE” (TAKASAGO INTERNATIONAL CORPORATION, priority 2021, published 2025):

Experiments:
[1] = Sensory evaluation of aqueous solution II containing (E)-2-octenal 10 ppb: off-flavor intensity and masking component intensity; conditions: average score 0-4
Experimental: (§1) In ion-exchanged water, each degradation component was added to achieve the concentrations listed in Table 1, and aqueous solutions I to VI containing these degradation components were prepared.
(§2) For the aforementioned aqueous solutions containing degradation components, nootkatone was added at the concentrations listed in Table 2 to confirm the intensity of the off-flavor (masking effect) in each sample and the intensity of the masking component itself (the impact on the flavor of the food and/or beverage itself).
(§3) The test was conducted as follows. Eight experienced panelists were selected to conduct a sensory evaluation. The intensity of the off-flavor of the aqueous solution containing the degradation components derived from unsaturated fatty acids, without added masking components, was set as “Evaluation: 4.” The ion-exchanged water free of any degradation components was set as “Evaluation: 0.” The intensity of the off-flavor (masking effect) of each sample was then relatively evaluated according to the following evaluation criteria.
(§4) • Off-flavor is strongly sensed: 4 points • Off-flavor is sensed: 3 points • Off-flavor is slightly sensed: 2 points • Off-flavor is barely sensed: 1 point • Off-flavor is not sensed at all: 0 points
(§5) Also, the intensity of the masking components (impact on the flavor of the food and/or beverage itself) was absolutely evaluated according to the following evaluation criteria.
(§6) • Masking component is strongly sensed: 4 points • Masking component is sensed: 3 points • Masking component is slightly sensed: 2 points • Masking component is barely sensed: 1 point • Masking component is not sensed at all: 0 points

[2] = Sensory evaluation of aqueous solution I containing (E)-2-nonenal 1 ppb: off-flavor intensity and masking component intensity; conditions: average score 0-4
Experimental: as §1, §2, §3, §4, §5, §6

[3] = Sensory evaluation of aqueous solution IV containing 1,5-octadien-3-one 100 ppt: off-flavor intensity and masking component intensity; conditions: aqueous solution IV, 1,5-octadien-3-one 100 ppt, average score 0-4
Experimental: as §1, §2, §3, §4, §5, §6

[4] = Sensory evaluation of aqueous solution V containing 1-octen-3-ol 10 ppb: off-flavor intensity and masking component intensity; conditions: average score 0-4
Experimental: as §1, §2, §3, §4, §5, §6

C=C(C)[C@@H]1CCC2=CC(=O)C[C@@H](C)[C@]2(C)C1 [Nootkatone, nootkatone]
Masking Component Intensity ([1]; 1 ppb added): 0.9 points
Masking Component Intensity ([1]; 1 ppm added): 2.6 points
Masking Component Intensity ([1]; 5 ppm added): 3.8 points
Masking Component Intensity ([1]; 10 ppb added): 1.1 points
Masking Component Intensity ([1]; 10 ppm added): 4.0 points
Masking Component Intensity ([1]; 10 ppt added): 0.4 points
Masking Component Intensity ([1]; 100 ppb added): 1.5 points
Masking Component Intensity ([1]; 100 ppt added): 0.5 points
Masking Component Intensity ([2]; 1 ppb added): 0.9 points
Masking Component Intensity ([2]; 1 ppm added): 2.9 points
Masking Component Intensity ([2]; 5 ppm added): 3.4 points
Masking Component Intensity ([2]; 10 ppb added): 1.1 points
Masking Component Intensity ([2]; 10 ppm added): 3.8 points
Masking Component Intensity ([2]; 10 ppt added): 0.3 points
Masking Component Intensity ([2]; 100 ppb added): 1.6 points
Masking Component Intensity ([2]; 100 ppt added): 0.3 points
Masking Component Intensity ([3]; 1 ppb added): 0.4 points
Masking Component Intensity ([3]; 1 ppm added): 2.5 points
Masking Component Intensity ([3]; 5 ppm added): 3.6 points
Masking Component Intensity ([3]; 10 ppb added): 0.9 points
Masking Component Intensity ([3]; 10 ppm added): 4.0 points
Masking Component Intensity ([3]; 10 ppt added): 0.1 points
Masking Component Intensity ([3]; 100 ppb added): 1.6 points
Masking Component Intensity ([3]; 100 ppt added): 0.3 points
Masking Component Intensity ([4]; 1 ppb added): 0.4 points
Masking Component Intensity ([4]; 1 ppm added): 2.5 points
Masking Component Intensity ([4]; 5 ppm added): 3.3 points
Masking Component Intensity ([4]; 10 ppb added): 1.3 points
Masking Component Intensity ([4]; 10 ppm added): 3.9 points
Masking Component Intensity ([4]; 10 ppt added): 0.3 points
Masking Component Intensity ([4]; 100 ppb added): 1.5 points
Masking Component Intensity ([4]; 100 ppt added): 0.3 points

CCCCCCCC/C=C\CCCCCCCC(=O)O [Oleic Acid, oleic acid]
Masking Component Intensity ([1]; 1 ppm added): 2.3 points
Masking Component Intensity ([1]; 5 ppm added): 3.1 points
Masking Component Intensity ([1]; 10 ppb added): 0.6 points
Masking Component Intensity ([1]; 10 ppm added): 3.5 points
Masking Component Intensity ([1]; 50 ppb added): 0.9 points
Masking Component Intensity ([1]; 100 ppb added): 1.3 points
Masking Component Intensity ([1]; 500 ppb added): 1.5 points
Masking Component Intensity ([2]; 1 ppm added): 2.3 points
Masking Component Intensity ([2]; 5 ppm added): 2.9 points
Masking Component Intensity ([2]; 10 ppb added): 0.8 points
Masking Component Intensity ([2]; 10 ppm added): 3.9 points
Masking Component Intensity ([2]; 50 ppb added): 1.1 points
Masking Component Intensity ([2]; 100 ppb added): 1.6 points
Masking Component Intensity ([2]; 500 ppb added): 1.9 points
Masking Component Intensity ([3]; 1 ppm added): 1.8 points
Masking Component Intensity ([3]; 5 ppm added): 2.0 points
Masking Component Intensity ([3]; 10 ppb added): 0.1 points
Masking Component Intensity ([3]; 10 ppm added): 2.8 points
Masking Component Intensity ([3]; 50 ppb added): 0.5 points
Masking Component Intensity ([3]; 100 ppb added): 0.6 points
Masking Component Intensity ([3]; 500 ppb added): 1.0 points
Masking Component Intensity ([4]; 1 ppm added): 2.4 points
Masking Component Intensity ([4]; 5 ppm added): 3.3 points
Masking Component Intensity ([4]; 10 ppb added): 0.5 points
Masking Component Intensity ([4]; 10 ppm added): 3.9 points
Masking Component Intensity ([4]; 50 ppb added): 0.8 points
Masking Component Intensity ([4]; 100 ppb added): 1.4 points
Masking Component Intensity ([4]; 500 ppb added): 1.5 points

CC(=O)/C=C/C1C(C)=CCCC1(C)C (stereo not drawn) [α-Ionone, α-ionone]
Masking Component Intensity ([1]; 0.1 ppt added): 0.1 points
Masking Component Intensity ([1]; 1 ppb added): 1.5 points
Masking Component Intensity ([1]; 1 ppm added): 3.5 points
Masking Component Intensity ([1]; 1 ppt added): 0.3 points
Masking Component Intensity ([1]; 10 ppb added): 2.3 points
Masking Component Intensity ([1]; 10 ppm added): 4.0 points
Masking Component Intensity ([1]; 10 ppt added): 0.8 points
Masking Component Intensity ([1]; 100 ppb added): 2.9 points
Masking Component Intensity ([1]; 100 ppt added): 1.1 points
Masking Component Intensity ([2]; 0.1 ppt added): 0.3 points
Masking Component Intensity ([2]; 1 ppb added): 1.8 points
Masking Component Intensity ([2]; 1 ppm added): 3.6 points
Masking Component Intensity ([2]; 1 ppt added): 0.6 points
Masking Component Intensity ([2]; 10 ppb added): 2.3 points
Masking Component Intensity ([2]; 10 ppm added): 4.0 points
Masking Component Intensity ([2]; 10 ppt added): 0.8 points
Masking Component Intensity ([2]; 100 ppb added): 3.0 points
Masking Component Intensity ([2]; 100 ppt added): 1.1 points
Masking Component Intensity ([3]; 0.1 ppt added): 0.0 points
Masking Component Intensity ([3]; 1 ppb added): 1.0 points
Masking Component Intensity ([3]; 1 ppm added): 3.5 points
Masking Component Intensity ([3]; 1 ppt added): 0.3 points
Masking Component Intensity ([3]; 10 ppb added): 1.8 points
Masking Component Intensity ([3]; 10 ppm added): 4.0 points
Masking Component Intensity ([3]; 10 ppt added): 0.6 points
Masking Component Intensity ([3]; 100 ppb added): 2.5 points
Masking Component Intensity ([3]; 100 ppt added): 0.8 points
Masking Component Intensity ([4]; 0.1 ppt added): 0.1 points
Masking Component Intensity ([4]; 1 ppb added): 1.3 points
Masking Component Intensity ([4]; 1 ppm added): 3.4 points
Masking Component Intensity ([4]; 1 ppt added): 0.3 points
Masking Component Intensity ([4]; 10 ppb added): 2.1 points
Masking Component Intensity ([4]; 10 ppm added): 4.0 points
Masking Component Intensity ([4]; 10 ppt added): 0.8 points
Masking Component Intensity ([4]; 100 ppb added): 2.8 points
Masking Component Intensity ([4]; 100 ppt added): 1.0 points

CCC(=O)/C=C/C1C(C)=CCCC1(C)C (stereo not drawn) [α-Methyl Ionone, α-methyl ionone]
Masking Component Intensity ([1]; 0.01 ppt added): 0.4 points
Masking Component Intensity ([1]; 0.1 ppt added): 0.6 points
Masking Component Intensity ([1]; 1 ppb added): 1.8 points
Masking Component Intensity ([1]; 1 ppm added): 4.0 points
Masking Component Intensity ([1]; 1 ppt added): 0.9 points
Masking Component Intensity ([1]; 10 ppb added): 2.8 points
Masking Component Intensity ([1]; 10 ppt added): 1.4 points
Masking Component Intensity ([1]; 100 ppb added): 3.4 points
Masking Component Intensity ([1]; 100 ppt added): 1.6 points
Masking Component Intensity ([2]; 0.01 ppt added): 0.1 points
Masking Component Intensity ([2]; 0.1 ppt added): 0.3 points
Masking Component Intensity ([2]; 1 ppb added): 2.1 points
Masking Component Intensity ([2]; 1 ppm added): 4.0 points
Masking Component Intensity ([2]; 1 ppt added): 0.8 points
Masking Component Intensity ([2]; 10 ppb added): 2.9 points
Masking Component Intensity ([2]; 10 ppt added): 1.1 points
Masking Component Intensity ([2]; 100 ppb added): 3.5 points
Masking Component Intensity ([2]; 100 ppt added): 1.5 points
Masking Component Intensity ([3]; 0.01 ppt added): 0.4 points
Masking Component Intensity ([3]; 0.1 ppt added): 0.5 points
Masking Component Intensity ([3]; 1 ppb added): 1.5 points
Masking Component Intensity ([3]; 1 ppm added): 4.0 points
Masking Component Intensity ([3]; 1 ppt added): 0.8 points
Masking Component Intensity ([3]; 10 ppb added): 2.4 points
Masking Component Intensity ([3]; 10 ppt added): 0.9 points
Masking Component Intensity ([3]; 100 ppb added): 3.0 points
Masking Component Intensity ([3]; 100 ppt added): 1.3 points
Masking Component Intensity ([4]; 0.01 ppt added): 0.1 points
Masking Component Intensity ([4]; 0.1 ppt added): 0.3 points
Masking Component Intensity ([4]; 1 ppb added): 1.8 points
Masking Component Intensity ([4]; 1 ppm added): 4.0 points
Masking Component Intensity ([4]; 1 ppt added): 0.8 points
Masking Component Intensity ([4]; 10 ppb added): 2.8 points
Masking Component Intensity ([4]; 10 ppt added): 0.9 points
Masking Component Intensity ([4]; 100 ppb added): 3.4 points
Masking Component Intensity ([4]; 100 ppt added): 1.5 points
